From article doi:10.1101/2022.10.10.511681 come the findings set out here.

Results are given in words; binding and its absence hold for the method and conditions named. For some assays here: Binding seen in cells or lysates may run through a third protein. Some results given as binding are weak or reduced against the parent protein; the word gives no strength. Sequences can lack the tags named with a protein.

For one test, the target named is T1, PER2-MYC (human) (UniProt O15055).
T1 sequence: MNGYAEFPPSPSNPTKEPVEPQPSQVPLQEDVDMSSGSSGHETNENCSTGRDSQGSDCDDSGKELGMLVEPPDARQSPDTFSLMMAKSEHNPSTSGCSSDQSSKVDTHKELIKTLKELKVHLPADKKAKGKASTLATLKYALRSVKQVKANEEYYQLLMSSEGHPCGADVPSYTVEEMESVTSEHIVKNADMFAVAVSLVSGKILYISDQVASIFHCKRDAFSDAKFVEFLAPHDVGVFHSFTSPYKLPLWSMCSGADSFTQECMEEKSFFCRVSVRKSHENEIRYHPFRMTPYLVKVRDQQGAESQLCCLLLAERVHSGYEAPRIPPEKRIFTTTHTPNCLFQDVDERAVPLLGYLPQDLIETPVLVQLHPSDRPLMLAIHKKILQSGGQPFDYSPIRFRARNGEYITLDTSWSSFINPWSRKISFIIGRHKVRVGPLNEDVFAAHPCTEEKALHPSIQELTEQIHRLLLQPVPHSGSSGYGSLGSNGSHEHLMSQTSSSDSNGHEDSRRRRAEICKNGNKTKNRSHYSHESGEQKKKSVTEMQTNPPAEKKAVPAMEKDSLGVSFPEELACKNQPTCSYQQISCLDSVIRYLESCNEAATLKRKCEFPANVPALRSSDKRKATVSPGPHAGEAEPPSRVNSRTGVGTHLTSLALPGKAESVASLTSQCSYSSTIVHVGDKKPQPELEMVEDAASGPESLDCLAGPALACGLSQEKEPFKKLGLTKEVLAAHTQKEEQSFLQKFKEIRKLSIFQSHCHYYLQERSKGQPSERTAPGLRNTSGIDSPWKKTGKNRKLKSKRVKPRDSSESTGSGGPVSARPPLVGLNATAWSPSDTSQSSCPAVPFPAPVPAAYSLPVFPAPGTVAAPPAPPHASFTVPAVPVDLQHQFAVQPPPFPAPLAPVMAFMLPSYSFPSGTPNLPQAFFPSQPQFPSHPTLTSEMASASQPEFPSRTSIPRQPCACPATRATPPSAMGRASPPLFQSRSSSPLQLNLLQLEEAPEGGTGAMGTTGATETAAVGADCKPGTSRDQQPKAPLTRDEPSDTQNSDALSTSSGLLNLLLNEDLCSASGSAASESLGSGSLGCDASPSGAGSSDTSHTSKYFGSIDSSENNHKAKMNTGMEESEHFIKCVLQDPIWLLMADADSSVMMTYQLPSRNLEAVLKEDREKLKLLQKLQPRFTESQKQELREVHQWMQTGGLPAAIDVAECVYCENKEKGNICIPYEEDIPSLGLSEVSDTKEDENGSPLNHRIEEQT
Put plainly: proximity ligation.

Test [1] addresses T2, full length PER2 (LTE cell-free expressed, eGFP or mCherry tagged) (human) (UniProt O15055).
T2 sequence: T1 sequence
Put plainly: AlphaScreen or HTRF. Background: In Alpha technology, singlet oxygen from a donor bead excites a nearby acceptor bead.

B1: CAVIN3 (endogenous, HeLa) (protein, UniProt Q969G5 1-261)
chain: MRESALERGPVPEAPAGGPVHAVTVVTLLEKLASMLETLRERQGGLARRQGGLAGSVRRIQSGLGALSRSHDTTSNTLAQLLAKAERVSSHANAAQERAVRRAAQVQRLEANHGLLVARGKLHVLLFKEEGEVPASAFQKAPEPLGPADQSELGPEQLEAEVGESSDEEPVESRAQRLRRTGLQKVQSLRRALSGRKGPAAPPPTPVKPPRLGPGRSAEAQPEAQPALEPTLEPEPPQDTEEDPGRPGAAEEALLQMESVA
With B1, the binding result with PER2-MYC (human) is recorded as “binds”.

B2: CAVIN3 full length (FL), LTE cell-free expressed (protein, UniProt Q969G5 1-261)
chain: B1 chain
In the case of B2, the binding result in test [1] is “binds”.
